Source: PMC9089883
No constants are given. Whether binding was seen depends on the method and setting. Binding seen in cells or lysates may run through a third protein. Binding calls can cover weak binding; strength is not graded here.

Sequences of proteins named here, by UniProt entry; tags and fusion partners are left off.
UniProt P51775: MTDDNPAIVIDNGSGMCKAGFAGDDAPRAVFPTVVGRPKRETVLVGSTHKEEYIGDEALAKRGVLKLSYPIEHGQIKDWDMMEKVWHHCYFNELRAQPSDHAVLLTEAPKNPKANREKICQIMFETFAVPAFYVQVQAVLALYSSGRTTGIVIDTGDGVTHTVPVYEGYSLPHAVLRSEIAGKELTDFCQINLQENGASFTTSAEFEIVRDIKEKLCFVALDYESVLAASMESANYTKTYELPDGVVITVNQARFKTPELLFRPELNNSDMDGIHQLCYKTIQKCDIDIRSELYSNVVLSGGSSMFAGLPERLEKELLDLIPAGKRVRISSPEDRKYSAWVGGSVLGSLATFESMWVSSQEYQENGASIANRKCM

Biological target: Flangin-3HA (Flangin endogenously tagged with a triple hemagglutinin epitope) (Giardia lamblia (strain WB Clone 6, ATCC 50803)) (UniProt A8BCS1)
Test: co-IP

Giardia lamblia actin (GlActin) (from UniProt P51775 1-375)
binding: binds
